PubChem BioAssay AID1259308, NCATS – 2017
Test: 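Knock-downs that increase output of a recombinant reporter protein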 (primary screen). Cell system: human HEK293 embryonic kidney cells stably expressing firefly luciferase (HEK-CMV-Luc2-Hygro). Knock-down reagent: single siRNA against human genes, 0.8 pmol siRNA per well. Duration: 72 h. Read-out: 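Luciferase light (ONE-Glo) measured on one replicate plate set and viability (CellTiter-Glo) on the other, scaled to a negative control siRNA, with robust z-scores and luciferase per cell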. Direction: total luciferase, z-score and total luciferase, % of control: higher = more reporter protein produced. Rule for the call: 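Active when the median/MAD z-score for overall luciferase is greater than 3; a gene was taken forward for validation with new siRNAs if at least two of its three siRNAs passed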. Calls: active = raised luciferase; inactive = no rise.
In all, the deposit lists about 59,000 reagents; below is a part drawn at random. Over the whole deposit, about 1,510 (2.6%) are marked active. 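Calls use total luciferase alone and ignore viability, so some active siRNAs may act by altering cell number.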 Reagents against one gene are numbered here. Not all columns of the deposit are shown.

target gene | reagent no. | total luciferase, z-score | total luciferase, % of control | Outcome
CLASRP | 1 | -2.86 | 25 | inactive
CLASRP | 2 | 0.558 | 93 | inactive
CLASRP | 3 | -1.47 | 52.7 | inactive
TAT | 1 | -0.576 | 70.4 | inactive
TAT | 2 | -0.162 | 78.7 | inactive
TAT | 3 | 1.09 | 104 | inactive
KRTAP1-3 | 1 | -0.641 | 69.1 | inactive
KRTAP1-3 | 2 | 0.556 | 92.9 | inactive
KRTAP1-3 | 3 | -0.815 | 65.7 | inactive
SATL1 | 1 | 2.04 | 123 | inactive
SATL1 | 2 | -0.166 | 78.6 | inactive
SATL1 | 3 | 1.48 | 111 | inactive
HS6ST2 | 1 | 1.95 | 121 | inactive
HS6ST2 | 2 | -1.68 | 48.5 | inactive
HS6ST2 | 3 | 0.0926 | 83.7 | inactive
CLSTN2 | 1 | -0.386 | 74.2 | inactive
CLSTN2 | 2 | -0.806 | 65.8 | inactive
CLSTN2 | 3 | 0.462 | 91.1 | inactive
HSD17B12 | 1 | -1.24 | 57.1 | inactive
HSD17B12 | 2 | -2.13 | 39.5 | inactive
HSD17B12 | 3 | 1.38 | 109 | inactive
RHEX | 1 | -0.26 | 76.7 | inactive
RHEX | 2 | 0.721 | 96.2 | inactive
RHEX | 3 | 2.96 | 141 | inactive
MT1G | 1 | -0.0788 | 80.3 | inactive
MT1G | 2 | 0.241 | 86.7 | inactive
MT1G | 3 | -1.55 | 51 | inactive
TMEM266 | 1 | -0.000631 | 81.9 | inactive
TMEM266 | 2 | 2.35 | 129 | inactive
TMEM266 | 3 | 1.02 | 102 | inactive

Targets listed so far whose target name begins with C or c (6):
target gene | reagent no. | total luciferase, z-score | total luciferase, % of control | Outcome
CLASRP | 1 | -2.86 | 25 | inactive
CLASRP | 2 | 0.558 | 93 | inactive
CLASRP | 3 | -1.47 | 52.7 | inactive
CLSTN2 | 1 | -0.386 | 74.2 | inactive
CLSTN2 | 2 | -0.806 | 65.8 | inactive
CLSTN2 | 3 | 0.462 | 91.1 | inactive

Continued:
target gene | reagent no. | total luciferase, z-score | total luciferase, % of control | Outcome
SCFD1 | 1 | -0.0437 | 81 | inactive
SCFD1 | 2 | 0.812 | 98 | inactive
SCFD1 | 3 | 0.255 | 87 | inactive
HARS2 | 1 | -0.53 | 71.3 | inactive
HARS2 | 2 | 0.318 | 88.2 | inactive
HARS2 | 3 | 1.71 | 116 | inactive
USP39 | 1 | 1.11 | 104 | inactive
USP39 | 2 | -0.406 | 73.8 | inactive
USP39 | 3 | 1.07 | 103 | inactive
GARRE1 | 1 | 1.71 | 116 | inactive
GARRE1 | 2 | -0.0729 | 80.4 | inactive
GARRE1 | 3 | 0.189 | 85.7 | inactive
RPL22L1 | 1 | 0.503 | 91.9 | inactive
RPL22L1 | 2 | 1.24 | 107 | inactive
RPL22L1 | 3 | -0.771 | 66.6 | inactive
EIF2S3 | 1 | -3.01 | 22 | inactive
EIF2S3 | 2 | -2.68 | 28.7 | inactive
EIF2S3 | 3 | -0.953 | 62.9 | inactive
MRPS34 | 1 | -1.93 | 43.5 | inactive
MRPS34 | 2 | 0.54 | 92.6 | inactive
MRPS34 | 3 | 0.509 | 92 | inactive
STAM2 | 1 | -0.471 | 72.5 | inactive
STAM2 | 2 | -0.9 | 64 | inactive
STAM2 | 3 | -1.09 | 60.3 | inactive
SORD | 1 | 1.3 | 108 | inactive
SORD | 2 | -0.567 | 70.6 | inactive
SORD | 3 | -0.853 | 64.9 | inactive
PCDHB11 | 1 | -0.27 | 76.5 | inactive
PCDHB11 | 2 | -0.0905 | 80.1 | inactive
PCDHB11 | 3 | -0.0468 | 81 | inactive
KLHDC2 | 1 | -0.935 | 63.3 | inactive
KLHDC2 | 2 | 0.134 | 84.5 | inactive
KLHDC2 | 3 | 1.25 | 107 | inactive
FARS2 | 1 | 3.9 | 159 | active
FARS2 | 2 | -1.87 | 44.7 | inactive
FARS2 | 3 | 0.974 | 101 | inactive
CD300E | 1 | -1.08 | 60.4 | inactive
CD300E | 2 | 0.684 | 95.5 | inactive
CD300E | 3 | -0.83 | 65.4 | inactive
SCGB1C1 | 1 | -0.503 | 71.9 | inactive
SCGB1C1 | 2 | -0.338 | 75.2 | inactive
SCGB1C1 | 3 | -2.07 | 40.8 | inactive
HSD17B4 | 1 | 0.156 | 85 | inactive
HSD17B4 | 2 | 0.937 | 101 | inactive
HSD17B4 | 3 | -0.463 | 72.7 | inactive
